The exact form of at least one protein or probe is not confirmed. For some assays here: The comparison behind a weaker result is the experiment's own reference, which may not be listed here.
Experiments:
[1] = system: piggyBac transposase R245A (Trichoplusia ni); test: enzyme reaction in vitro; settings: slight decrease in hairpin resolving and target joining; purified recombinant protein; protein details: C-terminal His-tag (pET22b); label: 5'-32P; folded or branched DNA
[2] = system: piggyBac transposase R275A/R277A (Trichoplusia ni); test: enzyme reaction in vitro; settings: slightly decreased hairpin resolving; target joining defective; purified recombinant protein; protein details: C-terminal His-tag (pET22b); label: 5'-32P; folded or branched DNA
[3] = system: piggyBac transposase R341A (Trichoplusia ni); test: enzyme reaction in vitro; settings: slight decrease in hairpin resolving and target joining; purified recombinant protein; protein details: C-terminal His-tag (pET22b); label: 5'-32P; folded or branched DNA
[4] = system: piggyBac transposase R372A/K375A (Exc+Int-) (Trichoplusia ni); test: enzyme reaction in vitro; settings: better hairpin resolving than WT; target joining defective; purified recombinant protein; protein details: C-terminal His-tag (pET22b); label: 5'-32P; folded or branched DNA
[5] = system: piggyBac transposase R388A (Trichoplusia ni); test: enzyme reaction in vitro; settings: dramatic decrease in hairpin opening; target joining defective; purified recombinant protein; protein details: C-terminal His-tag (pET22b); label: 5'-32P; folded or branched DNA
[6] = system: piggyBac transposase S351E (Trichoplusia ni); test: enzyme reaction in vitro; settings: slightly decreased hairpin resolving; target joining defective; purified recombinant protein; protein details: C-terminal His-tag (pET22b); label: 5'-32P; folded or branched DNA
[7] = system: piggyBac transposase WT (Trichoplusia ni); test: enzyme reaction in vitro; settings: hairpin resolving; reference; purified recombinant protein; protein details: C-terminal His-tag (pET22b); label: 5'-32P; folded or branched DNA
[8] = system: piggyBac transposase WT (Trichoplusia ni); test: activity assay; settings: strand transfer assay; reference; purified recombinant protein; protein details: C-terminal His-tag (pET22b); label: 5'-32P on both strands

Sequence | activity on this sequence [1] | activity on this sequence [2] | activity on this sequence [3] | activity on this sequence [4] | activity on this sequence [5] | activity on this sequence [6] | activity on this sequence [7] | activity on this sequence [8]
CATGCGTCAATTTTACGCAGACTATCTTTCTAGGGTTAACCCTAGAAAGATAGTCTGCGTAAAATTGACGCATG [piggyBac end oligo with TTAA hairpin (PGB40)] | less active | less active | less active | active | less active | less active | active | 
CCCTAGAAAGATAATCATATTGTGACGTACGTTAAAGATAATCATGCGTAAAATTGACGCATGTGTTTT / TTAAAACACATGCGTCAATTTTACGCATGATTATCTTTAACGTACGTCACAATATGATTATCTTTCTAGGG [piggyBac R-end duplex PGB18/PGB19] |  |  |  |  |  |  |  | active

Reference: US20140287513
